Experiment: general procedure: solution-phase peptide synthesis; pentafluorophenyl ester
Conditions: late stage modification step, TFA salt

Substance | step yield
Dihydropacidamycin 1 | 10% yield
Dihydropacidamycin 4 | 26% yield
Tetrahydropacidamycin D | 5% yield
